In publication PMC8408529:
No constants are given. Whether binding was seen depends on the method and setting. In cells and extracts the contact can be indirect. Binding calls can cover weak binding; strength is not graded here.

Biological target: Numb (mouse, MELC) (mouse (endogenous in MELC))
Assay: co-IP; induced MELC lysates (50 mM HEPES pH 7.5, 150 mM NaCl, 1% NP-40) precipitated with anti-4.1R, anti-Numb, anti-LGN, anti-NuMA or anti-p150^Glued Ab on protein A-Sepharose, rabbit or mouse IgG as controls; immunoblot with each respective Ab

binding: binds
B1: LGN (mouse, MELC) (protein, UniProt Q8VDU0 1-679)
chain: MEGNLISMREDHSFHVRYRMEASCLELALEGERLCKSGDCRAGVSFFEAAVQVGTEDLKTLSAIYSQLGNAYFYLHDYAKALEYHHHDLTLARTIGDQLGEAKASGNLGNTLKVLGNFDEAIVCCQRHLDISRELNDKVGEARALYNLGNVYHAKGKSFGCPGPQDTGEFPEDVRNALQAAVDLYEENLSLVTALGDRAAQGRAFGNLGNTHYLLGNFRDAVIAHEQRLLIAKEFGDKAAERRAYSNLGNAYIFLGEFETASEYYKKTLLLARQLKDRAVEAQSCYSLGNTYTLLQDYEKAIDYHLKHLAIAQELKDRIGEGRACWSLGNAYTALGNHDQAMHFAEKHLEISREVGDKSGELTARLNLSDLQMVLGLSYSTNNSMMSENIEIDGSLHGAGAKLGRRHSMENLELMKLTPEKVPNWNSEILAKQKPLIAKPSAKLLFVNRLKGKKYKSGSACTKVLQDASNSVDHRAPRSQKKISSDTIGDEGFFDLLRRFQSNRMDDQRCHLQGNCRTTSTAAASATPKLMKAPSVSVVSPNTDEFLDLLASSQSRRLDDQRASFSNLPGLRLTKGNSPSVLERLMTNDKKEPDEDFFDILVKCQGSRLDDQRCAPPSAATKGPTVPDEDFFSLILRSQAKRMDEQRVLLQRDPNRDSEFGLKELLQNNALLEFKHSGK
